This is one part of the list.
How the values were obtained:
Experiment in all cases: glycan array binding signal (z-score within array); higher = stronger binding
Settings in all cases: glycan notation: IUPAC condensed, linker removed
[1] = molecular target: Fuc(a1-2)[Gal(a1-3)]Gal(b1-4)GlcNAc(b1-2)Man(a1-3)[Fuc(a1-2)[Gal(a1-3)]Gal(b1-4)GlcNAc(b1-2)Man(a1-6)]Man(b1-4)GlcNAc(b1-4)[Fuc(a1-6)]GlcNAc
How it was run: (§1)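 Glycan array data were curated from 3228 arrays in the Consortium for Functional Glycomics database and kept only where the protein sequence was available. Glycan names were converted to IUPAC-condensed notation, and columns mapping to the same glycan were averaged. The binding signal is a within-array Z-score, averaged across arrays of the same protein sequence at different concentrations or buffers and across linkers. Negative Z-scores can be read as non-binding.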

[2] = molecular target: Fuc(a1-2)[Gal(a1-3)]Gal(b1-4)GlcNAc(b1-3)GalNAc
How it was run: as §1

[3] = molecular target: Fuc(a1-2)[Gal(a1-3)]Gal(b1-4)GlcNAc(b1-6)GalNAc
How it was run: as §1

[4] = molecular target: Fuc(a1-2)[Gal(a1-3)]Gal(b1-4)[Fuc(a1-3)]Glc
How it was run: as §1

[5] = molecular target: Fuc(a1-2)[Gal(a1-3)]Gal(b1-4)[Fuc(a1-3)]GlcNAc
How it was run: as §1

[6] = molecular target: Fuc(a1-2)[Gal(a1-3)]Gal(b1-4)[Fuc(a1-3)]GlcNAc(b1-3)GalNAc
How it was run: as §1

[7] = molecular target: Fuc(a1-2)[Gal(a1-4)]Gal(b1-4)GlcNAc
How it was run: as §1

[8] = molecular target: Fuc(a1-2)[GalNAc(a1-3)]Gal
How it was run: as §1

[9] = molecular target: Fuc(a1-2)[GalNAc(a1-3)]Gal(b1-3)GalNAc(a1-3)[Fuc(a1-2)]Gal(b1-4)GlcNAc
How it was run: as §1

[10] = molecular target: Fuc(a1-2)[GalNAc(a1-3)]Gal(b1-3)GalNAc(b1-3)Gal(a1-4)Gal(b1-4)Glc
How it was run: as §1

[11] = molecular target: Fuc(a1-2)[GalNAc(a1-3)]Gal(b1-3)GlcNAc
How it was run: as §1

[12] = molecular target: Fuc(a1-2)[GalNAc(a1-3)]Gal(b1-3)GlcNAc(b1-2)Man(a1-3)[Fuc(a1-2)[GalNAc(a1-3)]Gal(b1-3)GlcNAc(b1-2)Man(a1-6)]Man(b1-4)GlcNAc(b1-4)GlcNAc
How it was run: as §1

[13] = molecular target: Fuc(a1-2)[GalNAc(a1-3)]Gal(b1-3)GlcNAc(b1-2)Man(a1-3)[Fuc(a1-2)[GalNAc(a1-3)]Gal(b1-3)GlcNAc(b1-2)Man(a1-6)]Man(b1-4)GlcNAc(b1-4)[Fuc(a1-6)]GlcNAc
How it was run: as §1

[14] = molecular target: Fuc(a1-2)[GalNAc(a1-3)]Gal(b1-3)GlcNAc(b1-3)GalNAc
How it was run: as §1

[15] = molecular target: Fuc(a1-2)[GalNAc(a1-3)]Gal(b1-3)GlcNAc(b1-6)GalNAc
How it was run: as §1

[16] = molecular target: Fuc(a1-2)[GalNAc(a1-3)]Gal(b1-4)Glc
How it was run: as §1

[17] = molecular target: Fuc(a1-2)[GalNAc(a1-3)]Gal(b1-4)GlcNAc
How it was run: as §1

[18] = molecular target: Fuc(a1-2)[GalNAc(a1-3)]Gal(b1-4)GlcNAc(b1-2)Man
How it was run: as §1

[19] = molecular target: Fuc(a1-2)[GalNAc(a1-3)]Gal(b1-4)GlcNAc(b1-2)Man(a1-3)[Fuc(a1-2)[GalNAc(a1-3)]Gal(b1-4)GlcNAc(b1-2)Man(a1-6)]Man(b1-4)GlcNAc(b1-4)GlcNAc
How it was run: as §1

[20] = molecular target: Fuc(a1-2)[GalNAc(a1-3)]Gal(b1-4)GlcNAc(b1-2)Man(a1-3)[Fuc(a1-2)[GalNAc(a1-3)]Gal(b1-4)GlcNAc(b1-2)Man(a1-6)]Man(b1-4)GlcNAc(b1-4)[Fuc(a1-6)]GlcNAc
How it was run: as §1

[21] = molecular target: Fuc(a1-2)[GalNAc(a1-3)]Gal(b1-4)GlcNAc(b1-3)Gal(b1-4)GlcNAc
How it was run: as §1

[22] = molecular target: Fuc(a1-2)[GalNAc(a1-3)]Gal(b1-4)GlcNAc(b1-3)Gal(b1-4)GlcNAc(b1-3)Gal(b1-4)GlcNAc
How it was run: as §1

[23] = molecular target: Fuc(a1-2)[GalNAc(a1-3)]Gal(b1-4)GlcNAc(b1-3)GalNAc
How it was run: as §1

[24] = molecular target: Fuc(a1-2)[GalNAc(a1-3)]Gal(b1-4)GlcNAc(b1-3)[Fuc(a1-2)[GalNAc(a1-3)]Gal(b1-4)GlcNAc(b1-6)]GalNAc
How it was run: as §1

[25] = molecular target: Fuc(a1-2)[GalNAc(a1-3)]Gal(b1-4)GlcNAc(b1-6)GalNAc
How it was run: as §1

[26] = molecular target: Fuc(a1-2)[GalNAc(a1-3)]Gal(b1-4)[Fuc(a1-3)]GlcNAc
How it was run: as §1

[27] = molecular target: Fuc(a1-2)[GalNAc(a1-3)]Gal(b1-4)[Fuc(a1-3)]GlcNAc(b1-3)GalNAc
How it was run: as §1

[28] = molecular target: Fuc(a1-2)[GalNAc(a1-4)]Gal(b1-4)GlcNAc
How it was run: as §1

[29] = molecular target: Fuc(a1-2)[GalNAc(b1-3)]Gal
How it was run: as §1

Fuc(a1-3)GlcNAc = molecular target: Fuc(a1-3)GlcNAc
How it was run: as §1

[30] = molecular target: Fuc(a1-3)[Gal(b1-4)]Glc6S
How it was run: as §1

[31] = molecular target: Fuc(a1-3)[Gal(b1-4)]GlcNAc
How it was run: as §1

[32] = molecular target: Fuc(a1-3)[Gal(b1-4)]GlcNAc(b1-2)Man
How it was run: as §1

[33] = molecular target: Fuc(a1-3)[Gal(b1-4)]GlcNAc(b1-2)Man(a1-3)[Fuc(a1-3)[Gal(b1-4)]GlcNAc(b1-2)Man(a1-6)]Man(b1-4)GlcNAc(b1-4)GlcNAc
How it was run: as §1

[34] = molecular target: Fuc(a1-3)[Gal(b1-4)]GlcNAc(b1-2)Man(a1-3)[Fuc(a1-3)[Gal(b1-4)]GlcNAc(b1-2)Man(a1-6)]Man(b1-4)GlcNAc(b1-4)[Fuc(a1-6)]GlcNAc
How it was run: as §1

[35] = molecular target: Fuc(a1-3)[Gal(b1-4)]GlcNAc(b1-3)Gal(b1-3)[Fuc(a1-4)]GlcNAc
How it was run: as §1

[36] = molecular target: Fuc(a1-3)[Gal(b1-4)]GlcNAc(b1-3)GalNAc
How it was run: as §1

B1: Epf (Streptococcus pyogenes) (protein)
chain: GDHGPEFNGVMVVKAAEAEELPDDLMNFKGTWEVSADGSSGRFFSKGATDSYVFHLIPAKDVKKPGWREHNEVKDSYIKIDKQSIAARYKTSTTAPYSVAFKVNTKSLIKDHDYKITFEQGQIASGITVDYRIGSAFNKTTDDSFKISDESKYASNVKIEGEEQGFKQREQGDKTISFRTLKEGPMSLVLLSKVEKKPQGDLDVEFKNLKIIDVTNPSQLDKGVAYVGNKNVQLTLKSDDGRTNFEGDEISLFNSRGELLQTVTVTKDQQNPISITLSEDQAKSLKNKEKLKVSIKQKQSKKTSKDFFFEVGIDPKVEAKQKEKLLELDKVKKQIEDSINGDAWLPEKPVDLQGDHGLSAWSHPQFEK
[1]
  glycan array binding signal (z-score): -0.524
[2]
  glycan array binding signal (z-score): 0.559
[3]
  glycan array binding signal (z-score): 0.153
[4]
  glycan array binding signal (z-score): -0.902
[5]
  glycan array binding signal (z-score): -0.943
[6]
  glycan array binding signal (z-score): 0.223
[7]
  glycan array binding signal (z-score): 0.018
[8]
  glycan array binding signal (z-score): 0.094
[9]
  glycan array binding signal (z-score): 0.591
[10]
  glycan array binding signal (z-score): -0.316
[11]
  glycan array binding signal (z-score): 0.336
[12]
  glycan array binding signal (z-score): -0.651
[13]
  glycan array binding signal (z-score): -0.052
[14]
  glycan array binding signal (z-score): -0.53
[15]
  glycan array binding signal (z-score): -0.752
[16]
  glycan array binding signal (z-score): -0.241
[17]
  glycan array binding signal (z-score): -0.158
[18]
  glycan array binding signal (z-score): 2.08
[19]
  glycan array binding signal (z-score): 1.37
[20]
  glycan array binding signal (z-score): 0.256
[21]
  glycan array binding signal (z-score): 0.445
[22]
  glycan array binding signal (z-score): -0.273
[23]
  glycan array binding signal (z-score): 2.09
[24]
  glycan array binding signal (z-score): -1.24
[25]
  glycan array binding signal (z-score): -0.052
[26]
  glycan array binding signal (z-score): -0.288
[27]
  glycan array binding signal (z-score): -0.692
[28]
  glycan array binding signal (z-score): 1.18
[29]
  glycan array binding signal (z-score): -1.27
Fuc(a1-3)GlcNAc
  glycan array binding signal (z-score): -0.134
[30]
  glycan array binding signal (z-score): 1.25
[31]
  glycan array binding signal (z-score): 0.565
[32]
  glycan array binding signal (z-score): -0.862
[33]
  glycan array binding signal (z-score): -1.16
[34]
  glycan array binding signal (z-score): -0.996
[35]
  glycan array binding signal (z-score): 0.82
[36]
  glycan array binding signal (z-score): 0.444

Reference: the supplement of paper PMC8728848
